Experimental data: US20040115733A1
These are yes or no findings as the source states them, for the method shown. Binding seen in cells or lysates may run through a third protein. Some binding calls cover weakened binding; strength is not graded here.

Key:
[1] = biological target: T1, prohibitin, endogenously expressed in HeLa cells (human (HeLa cells)) (UniProt P35232); assay: co-immunoprecipitation from HeLa lysates (description of FIG. 3)
T1 sequence: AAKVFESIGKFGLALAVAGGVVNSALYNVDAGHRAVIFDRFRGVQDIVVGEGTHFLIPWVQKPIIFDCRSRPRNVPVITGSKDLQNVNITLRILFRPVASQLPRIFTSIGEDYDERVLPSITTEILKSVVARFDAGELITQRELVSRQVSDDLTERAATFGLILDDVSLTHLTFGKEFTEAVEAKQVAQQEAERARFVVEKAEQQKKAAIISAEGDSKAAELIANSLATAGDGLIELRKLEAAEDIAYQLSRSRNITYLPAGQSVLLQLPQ

[2] = biological target: T1, prohibitin, endogenously expressed in HeLa cells (human (HeLa cells)); assay: co-immunoprecipitation, SDS-PAGE (legend of FIG. 3)
[3] = biological target: T1, prohibitin, endogenously expressed in HeLa cells (human (HeLa cells)); assay: co-immunoprecipitation from HeLa lysates with anti-prohibitin mAb, anti-ShcA-SH2 immunoblot; visible increase upon H2O2 treatment

Measured: binding

B1: p52^ShcA, endogenously expressed in HeLa cells (protein, human (HeLa cells), UniProt P29353-2 1-473, looked up)
chain: MNKLSGGGGRRTRVEGGQLGGEEWTRHGSFVNKPTRGWLHPNDKVMGPGVSYLVRYMGCVEVLQSMRALDFNTRTQVTREAISLVCEAVPGAKGATRRRKPCSRPLSSILGRSNLKFAGMPITLTVSTSSLNLMAADCKQIIANHHMQSISFASGGDPDTAEYVAYVAKDPVNQRACHILECPEGLAQDVISTIGQAFELRFKQYLRNPPKLVTPHDRMAGFDGSAWDEEEEEPPDHQYYNDFPGKEPPLGGVVDMRLREGAAPGAARPTAPNAQTPSHLGATLPVGQPVGGDPEVRKQMPPPPPCPGRELFDDPSYVNVQNLDKARQAVGGAGPPNPAINGSAPRDLFDMKPFEDALRVPPPPQSVSMAEQLRGEPWFHGKLSRREAEALLQLNGDFLVRESTTTPGQYVLTGLQSGQPKHLLLVDPEGVVRTKDHRFESVSHLISYHMDNHLPIISAGSELCLQQPVERKL
binds: [1] | [2] | [3]

B2: p46^ShcA, endogenously expressed in HeLa cells (protein, human (HeLa cells), UniProt P29353-3 1-428, looked up)
chain: MGPGVSYLVRYMGCVEVLQSMRALDFNTRTQVTREAISLVCEAVPGAKGATRRRKPCSRPLSSILGRSNLKFAGMPITLTVSTSSLNLMAADCKQIIANHHMQSISFASGGDPDTAEYVAYVAKDPVNQRACHILECPEGLAQDVISTIGQAFELRFKQYLRNPPKLVTPHDRMAGFDGSAWDEEEEEPPDHQYYNDFPGKEPPLGGVVDMRLREGAAPGAARPTAPNAQTPSHLGATLPVGQPVGGDPEVRKQMPPPPPCPGRELFDDPSYVNVQNLDKARQAVGGAGPPNPAINGSAPRDLFDMKPFEDALRVPPPPQSVSMAEQLRGEPWFHGKLSRREAEALLQLNGDFLVRESTTTPGQYVLTGLQSGQPKHLLLVDPEGVVRTKDHRFESVSHLISYHMDNHLPIISAGSELCLQQPVERKL
binds: [1] | [2] | [3]
